Binding data for one substance are collected here from paper PMC11335265.

Chains of the proteins cited; added tags and fusions are not shown. Lines headed by an entry give the natural chain unless they say otherwise; changes in a name come on top.
UniProt Q10743: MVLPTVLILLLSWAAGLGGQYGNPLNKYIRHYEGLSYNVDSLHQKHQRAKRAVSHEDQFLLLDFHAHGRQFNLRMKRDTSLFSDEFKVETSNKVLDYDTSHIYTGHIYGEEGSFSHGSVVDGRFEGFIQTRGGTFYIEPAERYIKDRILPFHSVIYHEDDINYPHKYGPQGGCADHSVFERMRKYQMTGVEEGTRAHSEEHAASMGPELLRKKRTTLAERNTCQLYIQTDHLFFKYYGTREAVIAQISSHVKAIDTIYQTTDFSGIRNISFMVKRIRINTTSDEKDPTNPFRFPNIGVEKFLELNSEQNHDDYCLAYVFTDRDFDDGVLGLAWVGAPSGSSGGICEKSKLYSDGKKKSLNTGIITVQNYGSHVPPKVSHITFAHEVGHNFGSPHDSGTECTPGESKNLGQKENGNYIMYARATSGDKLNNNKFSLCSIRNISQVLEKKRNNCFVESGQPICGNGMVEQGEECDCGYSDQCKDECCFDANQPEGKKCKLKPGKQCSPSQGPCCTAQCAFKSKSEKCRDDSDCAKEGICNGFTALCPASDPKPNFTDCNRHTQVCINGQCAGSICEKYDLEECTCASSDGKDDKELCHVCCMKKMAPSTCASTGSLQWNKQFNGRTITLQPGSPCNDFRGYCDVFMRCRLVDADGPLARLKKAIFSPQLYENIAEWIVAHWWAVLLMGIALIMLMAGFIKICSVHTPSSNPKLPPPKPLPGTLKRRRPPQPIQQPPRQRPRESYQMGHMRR
UniProt Q62747: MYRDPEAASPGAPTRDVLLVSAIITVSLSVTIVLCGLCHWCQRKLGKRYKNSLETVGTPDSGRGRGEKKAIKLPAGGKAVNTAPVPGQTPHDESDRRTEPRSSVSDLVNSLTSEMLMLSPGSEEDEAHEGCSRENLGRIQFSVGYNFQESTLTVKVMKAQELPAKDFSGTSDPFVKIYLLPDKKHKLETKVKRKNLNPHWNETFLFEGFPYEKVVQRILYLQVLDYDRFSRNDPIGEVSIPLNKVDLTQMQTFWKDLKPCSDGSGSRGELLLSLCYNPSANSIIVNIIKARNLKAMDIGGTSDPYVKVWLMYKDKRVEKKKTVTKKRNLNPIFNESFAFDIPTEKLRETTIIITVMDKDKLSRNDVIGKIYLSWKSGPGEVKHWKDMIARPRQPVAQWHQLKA

This test deals with ADAM10, endogenous in primary rat hippocampal neurons (rat (endogenous in primary hippocampal neurons)) (UniProt Q10743). The experiment in a line: proximity ligation; Duolink In Situ kit on fixed mature (div17/18) hippocampal cultures with rabbit ADAM10 and mouse syt7 antibodies; antibody-negative controls; co-stained with phalloidin and bassoon.

Results are given in words; binding and its absence hold for the method and conditions named. Binding seen in cells or lysates may run through a third protein. Binding can be weak; no strength is given.

For “synaptotagmin 7 (syt7), endogenous in primary rat hippocampal neurons (from UniProt Q62747 1-403)”, the binding result is listed as “binds”.
